Here are results for 111 sequences from PMC7862700.

Test in all cases: DAPPL (digital affinity profiling via proximity ligation, sequencing)
Conditions in all cases: 10 mM Tris-HCl pH 7.5, 50 mM NaCl, 1 mM DTT, 4% glycerol, room temperature, 30 min; GST-TFs on glutathione beads, 16-mer random dsDNA library, 0.1% …; high values mean tight binding; double strand, one strand shown; scale: fold enrichment (6-mer frequency, TF over GST control)

The target in one assay is T1, ETS2 (UniProt P15036).
T1 sequence: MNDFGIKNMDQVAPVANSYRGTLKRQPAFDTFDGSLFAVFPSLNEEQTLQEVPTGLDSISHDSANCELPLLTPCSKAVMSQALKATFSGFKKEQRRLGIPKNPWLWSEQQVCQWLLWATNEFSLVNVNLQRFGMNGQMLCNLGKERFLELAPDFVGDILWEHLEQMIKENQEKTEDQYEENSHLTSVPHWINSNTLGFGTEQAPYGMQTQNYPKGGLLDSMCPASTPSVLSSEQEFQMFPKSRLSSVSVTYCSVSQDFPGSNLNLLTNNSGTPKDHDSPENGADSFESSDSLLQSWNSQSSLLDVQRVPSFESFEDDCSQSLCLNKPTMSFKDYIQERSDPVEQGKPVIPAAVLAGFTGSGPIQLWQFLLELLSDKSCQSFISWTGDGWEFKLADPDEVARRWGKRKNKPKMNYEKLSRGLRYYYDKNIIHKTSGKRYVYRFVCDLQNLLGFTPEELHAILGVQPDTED

In a further assay the target is T2, ETV3 (UniProt P41162-2).
T2 sequence: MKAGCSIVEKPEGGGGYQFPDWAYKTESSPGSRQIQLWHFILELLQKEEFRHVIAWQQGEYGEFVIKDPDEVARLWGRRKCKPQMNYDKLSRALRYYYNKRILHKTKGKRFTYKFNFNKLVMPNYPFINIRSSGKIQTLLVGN

The next assay has as its target T3, ELK3 (UniProt P41970).
T3 sequence: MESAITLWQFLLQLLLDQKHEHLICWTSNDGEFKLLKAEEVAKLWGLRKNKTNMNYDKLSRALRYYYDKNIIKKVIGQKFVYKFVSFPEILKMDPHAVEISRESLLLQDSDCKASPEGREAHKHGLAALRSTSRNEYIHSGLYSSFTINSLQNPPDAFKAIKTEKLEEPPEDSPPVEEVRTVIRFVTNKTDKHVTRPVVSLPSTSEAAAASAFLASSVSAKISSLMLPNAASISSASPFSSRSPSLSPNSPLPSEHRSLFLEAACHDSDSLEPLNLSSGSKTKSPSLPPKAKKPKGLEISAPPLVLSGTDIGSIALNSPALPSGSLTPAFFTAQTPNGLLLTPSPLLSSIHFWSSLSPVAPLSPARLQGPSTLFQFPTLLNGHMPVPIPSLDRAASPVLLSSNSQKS

Only a part is listed here, and it is no random draw. At the low end of the ranking the order means little.

On to CCCTCT, for which the figures for the binding signal with ETS2 and in the assay with ETV3 were 1.36 and 1.4, respectively.
On to CTTACA, for which the binding signal came out at 1.14 with ETS2 and 1.29 with ETV3.
Consider TGACCG, for which the binding signal in the assay with ELK3 was 1.47; in the assay with ETS2 it was 1.55; with ETV3 it was 1.53.
For the sequence GATCAC, the binding signal with ETS2 was found to be 0.914; with ETV3 it was 0.928.
Consider GGGGCT, for which the results for the binding signal with ELK3, in the assay with ETS2 and in the assay with ETV3 were 0.979, 0.969 and 0.905, respectively.
With ACCCCT, the binding signal was 1.08 in the assay with ETS2 and 1.03 with ETV3.
As for GACATG, the binding signal with ELK3 stood at 0.926; with ETS2, 0.992; in the assay with ETV3 it was 0.99.
Regarding TGGGTG, the results for the binding signal in the assay with ELK3, in the assay with ETS2 and with ETV3 were 0.976, 1.07 and 1, respectively.
Take CTCCAA: the results for the binding signal with ETS2 and with ETV3 were 1.32 and 1.23, respectively.
The corresponding values for ATCTCA are 1.14 and 1.13.
Taken in the same sequence, the figures for ACATGA were 0.98 and 0.955.
TGATCG: the results for the binding signal with ETS2 and with ETV3 were 1.03 and 1.11, respectively.
As for CGAATC, the binding signal with ELK3 was 0.923; with ETS2, 0.957; with ETV3, 0.944.
The corresponding values for AGTGAC are 0.982, 0.969 and 1.1.
As to GCTCTA, the binding signal is 1.16 with ETS2 and 1.1 with ETV3.
Taken in the same sequence, the figures for TCCAGC were 0.981 and 0.951.
The corresponding values for AGATTT are 1.17 and 1.05.
In the case of AAAGCC, the binding signal was determined as 0.98 with ELK3, 0.923 with ETS2 and 1.05 with ETV3.
Taken in the same sequence, the figures for ACGGCA were 1.01, 1.09 and 1.06.
The corresponding values for TTTCCA are 1.31, 1.38 and 1.45.
On to CCGAAT, for which the binding signal with ETS2 came to 1.22; in the assay with ETV3 it was 1.12.
Turning to GGTTAC, the binding signal with ELK3 worked out at 1.04; with ETS2, 0.978.
Taken in the same sequence, the figures for CACGTT were 1.25 and 1.3.
Taken in the same sequence, the figures for GCAGCC were 0.956 and 0.964.
ATATAG: the binding signal with ELK3 was 1.23; with ETS2 it was 1.11; in the assay with ETV3, 1.19.
Taken in the same sequence, the figures for TGCATA were 1.15, 1.17 and 1.11.
Take AATACG: the binding signal worked out at 1.26 in the assay with ELK3 and 1.28 with ETS2.
The corresponding values for TAGCGT are 0.856 and 0.99.
In the case of CCTTCG, the results for the binding signal with ELK3, with ETS2 and in the assay with ETV3 were 1.65, 1.3 and 1.12, respectively.
For the sequence CCTTGT, the binding signal was 1.18 in the assay with ELK3 and 1.26 in the assay with ETS2.
Consider CACCTA, for which the binding signal in the assay with ELK3 was found to be 0.984; in the assay with ETS2 it was 0.993; with ETV3, 0.982.
Turning to TCGTAT, the binding signal in the assay with ELK3 was 1.01; with ETS2, 0.958; in the assay with ETV3, 1.05.
With GCCGAT, the binding signal stood at 1.08 with ELK3 and 0.897 in the assay with ETS2.
Taken in the same sequence, the figures for AGCTGA were 0.948 and 1.04.
Consider TGAATC, for which the binding signal amounted to 0.956 with ELK3, 0.998 with ETS2 and 1.01 in the assay with ETV3.
Take TTGCCC: the binding signal with ELK3 came to 1.23; in the assay with ETS2, 1.43.
Take GTTGTA: the binding signal with ELK3 amounted to 0.876; with ETS2, 1.03; with ETV3, 1.01.
Regarding AGCTCT, the binding signal in the assay with ELK3 was 1.15; with ETS2, 1.16.
The corresponding values for CCACCC are 1.23 and 1.18.
CTACAG: the binding signal in the assay with ELK3 stood at 1.08; with ETS2 it was 0.966; in the assay with ETV3, 0.952.
The corresponding values for CGGCAT are 1.09, 1.17 and 1.19.
Turning to CTGTTC, the binding signal with ELK3 is 1.47; with ETS2, 1.44.
Consider TGACCC, for which the binding signal was determined as 1.4 in the assay with ELK3, 1.38 with ETS2 and 1.39 in the assay with ETV3.
CAGATG: the binding signal with ELK3 was 0.964; with ETS2, 1.05.
As for TGGGAT, the binding signal with ELK3 and in the assay with ETS2 was 1.17 throughout.
As to ATGCTC, the binding signal in the assay with ELK3 was 1.27; in the assay with ETS2, 1.42; in the assay with ETV3, 1.35.
In the case of CCGAGC, the binding signal in the assay with ELK3 was determined as 0.986; with ETS2, 1.17.
Turning to AGTCCT, the binding signal in the assay with ELK3 stood at 1.01; with ETS2, 1.06.
Consider ATAGGG, for which the figures for the binding signal with ELK3, with ETS2 and with ETV3 were 1.06, 1.01 and 0.989, respectively.
As to GTACGA, the binding signal turned out to be 0.967 with ELK3, 0.993 in the assay with ETS2 and 0.971 in the assay with ETV3.
For TGCATG, the figures for the binding signal with ELK3 and with ETS2 were 1.14 and 1.06, respectively.
Turning to CGCGCG, the binding signal in the assay with ELK3 came to 1.04; in the assay with ETS2, 0.962.
The corresponding values for CGCCAT are 0.952 and 0.98.
The corresponding values for GCCCTG are 0.911 and 0.971.
Turning to CATCGC, the binding signal with ELK3 was found to be 1.23; in the assay with ETS2, 1.14.
The corresponding values for CTTGCT are 1.25 and 1.21.
In the case of AGTATA, the binding signal with ELK3 was found to be 0.888; with ETS2 it was 0.975; in the assay with ETV3 it was 1.
On to TGTTTC, for which the binding signal came to 1.61 with ELK3 and 1.79 with ETS2.
In the case of AAGTAG, the values for the binding signal in the assay with ELK3 and with ETS2 were 1.26 and 1.31, respectively.
Regarding CCCCGA, the binding signal with ELK3 came out at 0.946; in the assay with ETS2, 1.07.
As for GTTAAG, the binding signal was determined as 1.05 in the assay with ELK3 and 1.18 with ETV3.
Taken in the same sequence, the figures for GCAGCT were 0.959 and 0.973.
On to CAAATG, for which the results for the binding signal in the assay with ELK3 and with ETV3 were 1.09 and 1.13, respectively.
Taken in the same sequence, the figures for AGATGA were 1.14 and 1.1.
On to TAATCG, for which the results for the binding signal in the assay with ELK3 and with ETV3 were 1.07 and 0.981, respectively.
On to TCGTCA, for which the results for the binding signal in the assay with ELK3 and with ETV3 were 0.975 and 0.99, respectively.
Consider GCTTCT, for which the values for the binding signal in the assay with ELK3 and with ETV3 were 1.61 and 1.4, respectively.
The sequence CATGCC gave a binding signal with ETV3 of 1.22.
TGCTGG returned a binding signal in the assay with ETV3 of 1.11.
With TTGTTT, the binding signal with ELK3 was found to be 1.49; with ETV3, 1.5.
Taken in the same sequence, the figures for GCCCGA were 0.935 and 1.04.
For the sequence CATACG, the binding signal in the assay with ELK3 was 1.12; with ETV3 it was 0.992.
Sequence TCGACG returned a binding signal with ETV3 of 0.994.
Regarding GCTGCG, the binding signal in the assay with ELK3 came out at 1.04; with ETV3, 1.07.
AATTAA: the binding signal with ETV3 turned out to be 1.25.
On to TTCCGC, for which the binding signal stood at 3.03 with ELK3 and 3.37 with ETV3.
In the assay with ETV3, ACGGAT registered a binding signal of 1.3.
For the sequence GCAATA, the values for the binding signal with ELK3 and with ETV3 were 1 and 1.04, respectively.
The corresponding values for TCCGTT are 1.54 and 1.58.
The corresponding values for GTATGG are 0.951 and 0.978.
Regarding CTCCGT, the values for the binding signal with ELK3 and with ETV3 were 1.38 and 1.22, respectively.
The corresponding values for CACTAG are 0.931 and 0.963.
Turning to AAAGGG, the binding signal with ELK3 amounted to 1.1; with ETV3, 1.18.
The corresponding values for CTACCA are 1.16 and 1.21.
The corresponding values for GGTTCA are 1.03 and 1.09.
Take CATTCG: the binding signal in the assay with ELK3 was 1.24; with ETV3, 1.27.
Turning to TAAAAA, the results for the binding signal with ELK3 and in the assay with ETV3 were 1.32 and 1.25, respectively.
The corresponding values for ACAATG are 1.08 and 1.11.
In the assay with ETV3, TATAAT had a binding signal of 1.19.
In turn, ATGGTG yielded a binding signal with ETV3 of 1.04.
For the sequence TACTGT, the figures for the binding signal in the assay with ELK3 and with ETV3 were 1.11 and 1.13, respectively.
For the sequence AGCACT, the binding signal with ELK3 turned out to be 1.62; with ETV3, 1.39.
Regarding CTTCGA, the binding signal in the assay with ETV3 worked out at 1.16.
For TAGTGG, the binding signal with ELK3 stood at 1.4; with ETV3 it was 1.1.
Taken in the same sequence, the figures for GTTACA were 1.24 and 1.09.
TTCTAT: the binding signal in the assay with ELK3 amounted to 1.35; with ETV3 it was 1.33.
In the assay with ETV3, TTTGAT gave a binding signal of 1.32.
Take GTATTG: the binding signal was 1.08 with ELK3 and 0.928 in the assay with ETV3.
The corresponding values for CGTCTG are 1.05 and 0.995.
Regarding TCTATT, the binding signal was 1.18 with ELK3 and 1.25 in the assay with ETV3.
For the sequence GAAGCG, in the assay with ELK3, the binding signal was found to be 1.49.
In the assay with ELK3, ATCTTG registered a binding signal of 1.41.
As for AATCAG, the binding signal in the assay with ELK3 was found to be 0.98; in the assay with ETV3 it was 1.07.
In the case of CAACAC, the binding signal with ELK3 came to 0.981.
CTTCTT displayed a binding signal in the assay with ELK3 of 1.61.
For the sequence GTTGCT, the binding signal worked out at 1.25 with ELK3 and 1.51 with ETV3.
The corresponding values for TATGTT are 1.19 and 1.26.
The corresponding values for GCTCCC are 1.18 and 1.21.
In turn, GTTCCC yielded a binding signal in the assay with ELK3 of 1.23.
CAAATC: the binding signal in the assay with ELK3 came out at 1.01; with ETV3, 0.999.
GCGCCT displayed a binding signal in the assay with ELK3 of 1.05.
